Data on two substances can be found in patent US20250109170 (published 2025).

A short description of data set [1]: general procedure: peptide synthesis; 2-chlorotrityl chloride; DIC/HOBt or DIC/Oxyma (SPPS); EDC·HCl/HOAt/DIEA (fragment coupling). The note with it: whole synthesis, scale 120 mmol, TFA salt.
Data set [2] can be described thus: general procedure: peptide synthesis; Rink amide MBHA resin; 2-chlorotrityl chloride resin; DIC/HOBt or DIC/Oxyma (SPPS); EDC·HCl/HOAt/DIEA (fragment coupling). The conditions noted are these: whole synthesis, scale of the general procedure 10 mmol to 120 mmol (SPPS), 2.55 to 34.04 mmol (fragment cou, TFA salt (crude, fragments)), acetate (GNA·2AcOH) final.
Data set [3] is described as follows: general procedure: peptide synthesis; rink amide MBHA; DIC/HOBt or DIC/Oxyma (SPPS); EDC·HCl/HOAt/DIEA (fragment coupling). The note with it: whole synthesis, scale 20 mmol, TFA salt.

Non-standard residues stand in square brackets, D forms with d. dPhe(4-Cl) = N[C@H](Cc1ccc(Cl)cc1)C(=O)O; d2Nal = N[C@H](Cc1ccc2ccccc2c1)C(=O)O; d3Pal = N[C@H](Cc1cccnc1)C(=O)O

Ac-[d2Nal][dPhe(4-Cl)][d3Pal]S-OH: the crude mass in data set [1] came out at 76.5 g. Besides, in data set [2], the “crude HPLC purity” value is reported as 95.5% and the crude yield is 94.6%.

For the substance “H2N-Tyr-D-hArg(Et)2-Leu-hArg(Et)2-Pro-D-Ala-NH2”, the crude mass in data set [3] is listed as 18 g. In data set [2], the “crude HPLC purity” value worked out at 82.9% and the crude yield came out at 98.4%.
